Laboratory results as given in the supplement of paper PMC10849652.
The list shows a part of the results.

Amino acid sequences for entries named in this document (tags omitted). A change or cut given only in a name is not applied to a line headed by its entry.
UniProt P61106, whole entry, looked up: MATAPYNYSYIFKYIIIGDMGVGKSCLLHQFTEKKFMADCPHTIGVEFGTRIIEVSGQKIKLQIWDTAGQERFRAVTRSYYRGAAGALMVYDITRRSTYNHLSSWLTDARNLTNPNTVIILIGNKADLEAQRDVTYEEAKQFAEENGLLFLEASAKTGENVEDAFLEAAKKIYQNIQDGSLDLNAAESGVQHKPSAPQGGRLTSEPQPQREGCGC
UniProt P11234: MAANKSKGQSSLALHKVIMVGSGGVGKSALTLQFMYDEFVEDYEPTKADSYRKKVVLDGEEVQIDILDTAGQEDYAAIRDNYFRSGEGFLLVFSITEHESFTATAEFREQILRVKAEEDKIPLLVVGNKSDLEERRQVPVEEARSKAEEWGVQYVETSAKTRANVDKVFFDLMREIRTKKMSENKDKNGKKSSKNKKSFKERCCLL
UniProt Q9H6Z4: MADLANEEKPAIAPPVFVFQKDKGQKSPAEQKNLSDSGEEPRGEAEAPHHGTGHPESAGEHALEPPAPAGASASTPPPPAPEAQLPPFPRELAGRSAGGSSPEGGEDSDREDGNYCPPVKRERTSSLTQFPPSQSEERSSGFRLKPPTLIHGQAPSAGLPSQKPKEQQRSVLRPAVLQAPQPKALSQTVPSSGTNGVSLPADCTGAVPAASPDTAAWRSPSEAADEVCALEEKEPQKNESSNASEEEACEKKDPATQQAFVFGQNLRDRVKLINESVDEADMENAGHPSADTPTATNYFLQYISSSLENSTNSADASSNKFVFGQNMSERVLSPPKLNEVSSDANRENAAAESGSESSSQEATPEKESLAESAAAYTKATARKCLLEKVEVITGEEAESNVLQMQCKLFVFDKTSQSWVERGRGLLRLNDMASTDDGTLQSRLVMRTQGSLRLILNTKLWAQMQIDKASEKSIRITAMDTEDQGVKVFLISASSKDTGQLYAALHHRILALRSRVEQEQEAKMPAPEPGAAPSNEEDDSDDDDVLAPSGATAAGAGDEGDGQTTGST
UniProt Q96E17: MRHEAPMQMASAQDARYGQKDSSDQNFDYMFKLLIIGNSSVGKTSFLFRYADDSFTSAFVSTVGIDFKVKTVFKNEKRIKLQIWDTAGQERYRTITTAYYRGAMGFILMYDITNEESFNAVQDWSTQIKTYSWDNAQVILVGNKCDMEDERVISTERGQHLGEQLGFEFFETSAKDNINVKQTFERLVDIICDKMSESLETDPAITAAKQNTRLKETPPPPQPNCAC
UniProt O43251: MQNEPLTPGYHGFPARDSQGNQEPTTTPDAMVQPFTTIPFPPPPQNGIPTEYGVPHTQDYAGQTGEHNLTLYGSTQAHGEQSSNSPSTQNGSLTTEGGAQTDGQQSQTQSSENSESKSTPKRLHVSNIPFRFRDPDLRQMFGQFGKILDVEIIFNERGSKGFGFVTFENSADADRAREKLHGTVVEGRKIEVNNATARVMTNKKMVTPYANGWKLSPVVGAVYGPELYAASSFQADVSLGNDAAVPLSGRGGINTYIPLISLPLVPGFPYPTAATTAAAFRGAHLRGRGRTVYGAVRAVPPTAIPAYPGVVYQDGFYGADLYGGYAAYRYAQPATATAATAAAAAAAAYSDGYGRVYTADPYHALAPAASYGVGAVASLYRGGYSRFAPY
UniProt Q16576, whole entry, looked up: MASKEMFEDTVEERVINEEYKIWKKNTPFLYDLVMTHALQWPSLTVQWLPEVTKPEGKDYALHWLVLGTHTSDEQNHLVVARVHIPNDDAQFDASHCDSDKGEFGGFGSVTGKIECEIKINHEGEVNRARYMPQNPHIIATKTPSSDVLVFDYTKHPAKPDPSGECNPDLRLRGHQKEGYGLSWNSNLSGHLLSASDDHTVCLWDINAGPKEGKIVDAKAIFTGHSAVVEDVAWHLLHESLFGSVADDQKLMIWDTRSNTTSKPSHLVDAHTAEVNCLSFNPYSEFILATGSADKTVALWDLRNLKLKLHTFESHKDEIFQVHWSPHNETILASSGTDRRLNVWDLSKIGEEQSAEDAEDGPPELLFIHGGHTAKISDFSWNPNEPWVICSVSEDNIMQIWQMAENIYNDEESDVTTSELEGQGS
UniProt Q969Q5: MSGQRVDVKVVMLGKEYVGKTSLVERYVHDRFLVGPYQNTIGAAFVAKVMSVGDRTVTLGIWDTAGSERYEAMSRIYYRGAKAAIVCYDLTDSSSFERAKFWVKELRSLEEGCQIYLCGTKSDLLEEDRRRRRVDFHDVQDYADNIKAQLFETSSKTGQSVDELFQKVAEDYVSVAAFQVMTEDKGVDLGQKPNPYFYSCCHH
UniProt Q9H0U4: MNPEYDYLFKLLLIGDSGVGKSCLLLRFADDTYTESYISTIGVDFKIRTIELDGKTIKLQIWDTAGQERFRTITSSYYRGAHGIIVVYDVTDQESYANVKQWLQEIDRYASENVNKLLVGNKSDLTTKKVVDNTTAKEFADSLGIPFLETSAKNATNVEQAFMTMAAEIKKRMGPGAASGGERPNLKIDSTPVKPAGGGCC
UniProt Q15291, whole entry, looked up: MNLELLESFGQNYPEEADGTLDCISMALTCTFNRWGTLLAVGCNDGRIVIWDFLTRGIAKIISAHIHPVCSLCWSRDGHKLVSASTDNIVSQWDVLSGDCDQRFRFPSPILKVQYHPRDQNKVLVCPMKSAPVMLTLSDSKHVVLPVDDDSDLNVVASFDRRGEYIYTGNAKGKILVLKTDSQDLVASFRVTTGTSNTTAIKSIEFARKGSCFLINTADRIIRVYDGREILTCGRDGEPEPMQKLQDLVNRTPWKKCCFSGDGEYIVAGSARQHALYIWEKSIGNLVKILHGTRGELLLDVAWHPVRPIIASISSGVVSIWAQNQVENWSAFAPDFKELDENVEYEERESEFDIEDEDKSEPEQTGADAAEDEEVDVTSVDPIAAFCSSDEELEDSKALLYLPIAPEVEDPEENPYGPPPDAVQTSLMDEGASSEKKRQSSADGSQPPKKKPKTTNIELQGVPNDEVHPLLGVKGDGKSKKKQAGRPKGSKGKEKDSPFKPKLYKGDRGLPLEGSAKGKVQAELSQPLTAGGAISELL
UniProt Q7Z6M1: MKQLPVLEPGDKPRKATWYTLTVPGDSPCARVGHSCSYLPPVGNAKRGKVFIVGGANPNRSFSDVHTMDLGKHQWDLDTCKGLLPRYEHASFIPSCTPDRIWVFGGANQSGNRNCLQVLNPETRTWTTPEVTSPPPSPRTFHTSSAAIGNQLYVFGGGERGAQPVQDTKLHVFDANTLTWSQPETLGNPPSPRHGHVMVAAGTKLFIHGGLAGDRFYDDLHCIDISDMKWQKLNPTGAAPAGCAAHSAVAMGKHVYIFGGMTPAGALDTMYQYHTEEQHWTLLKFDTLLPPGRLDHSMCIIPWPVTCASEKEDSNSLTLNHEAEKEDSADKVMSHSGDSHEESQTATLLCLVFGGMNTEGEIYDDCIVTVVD
UniProt Q5HYI8: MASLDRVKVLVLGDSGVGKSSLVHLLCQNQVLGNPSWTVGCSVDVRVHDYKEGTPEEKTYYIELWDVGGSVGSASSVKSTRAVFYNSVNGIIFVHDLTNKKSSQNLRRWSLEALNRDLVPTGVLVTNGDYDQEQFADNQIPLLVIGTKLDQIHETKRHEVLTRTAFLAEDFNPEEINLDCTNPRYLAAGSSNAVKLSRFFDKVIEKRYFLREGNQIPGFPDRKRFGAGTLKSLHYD
UniProt P61019: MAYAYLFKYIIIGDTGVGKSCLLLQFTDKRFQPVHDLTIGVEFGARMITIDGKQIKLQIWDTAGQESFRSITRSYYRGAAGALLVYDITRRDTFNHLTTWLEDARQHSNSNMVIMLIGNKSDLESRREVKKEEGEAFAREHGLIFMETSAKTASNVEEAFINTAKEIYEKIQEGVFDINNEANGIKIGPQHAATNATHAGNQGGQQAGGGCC
UniProt Q96S59, whole entry, looked up: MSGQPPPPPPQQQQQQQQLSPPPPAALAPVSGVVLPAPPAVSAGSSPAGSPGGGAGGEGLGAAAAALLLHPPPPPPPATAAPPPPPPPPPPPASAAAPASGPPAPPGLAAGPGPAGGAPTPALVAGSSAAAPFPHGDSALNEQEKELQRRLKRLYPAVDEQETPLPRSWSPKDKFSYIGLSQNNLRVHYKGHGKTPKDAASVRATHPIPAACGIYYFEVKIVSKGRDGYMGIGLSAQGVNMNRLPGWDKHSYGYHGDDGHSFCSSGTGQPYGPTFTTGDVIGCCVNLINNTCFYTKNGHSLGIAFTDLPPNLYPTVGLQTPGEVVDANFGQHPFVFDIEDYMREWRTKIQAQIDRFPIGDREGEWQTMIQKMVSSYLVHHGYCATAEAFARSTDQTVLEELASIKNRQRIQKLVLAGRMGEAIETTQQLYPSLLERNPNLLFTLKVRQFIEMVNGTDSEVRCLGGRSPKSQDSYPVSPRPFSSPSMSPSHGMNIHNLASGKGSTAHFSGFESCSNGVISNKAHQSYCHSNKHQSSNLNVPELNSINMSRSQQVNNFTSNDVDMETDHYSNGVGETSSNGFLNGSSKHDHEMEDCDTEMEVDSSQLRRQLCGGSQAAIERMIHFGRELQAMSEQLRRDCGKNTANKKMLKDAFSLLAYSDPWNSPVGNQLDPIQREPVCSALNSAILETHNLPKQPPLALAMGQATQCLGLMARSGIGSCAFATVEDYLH
UniProt Q9NRW1: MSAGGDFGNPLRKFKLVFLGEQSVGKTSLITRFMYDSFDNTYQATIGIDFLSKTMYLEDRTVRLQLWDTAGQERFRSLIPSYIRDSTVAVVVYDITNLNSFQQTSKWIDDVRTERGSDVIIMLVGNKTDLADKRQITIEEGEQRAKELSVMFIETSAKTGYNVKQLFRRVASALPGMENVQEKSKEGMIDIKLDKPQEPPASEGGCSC
UniProt O43502: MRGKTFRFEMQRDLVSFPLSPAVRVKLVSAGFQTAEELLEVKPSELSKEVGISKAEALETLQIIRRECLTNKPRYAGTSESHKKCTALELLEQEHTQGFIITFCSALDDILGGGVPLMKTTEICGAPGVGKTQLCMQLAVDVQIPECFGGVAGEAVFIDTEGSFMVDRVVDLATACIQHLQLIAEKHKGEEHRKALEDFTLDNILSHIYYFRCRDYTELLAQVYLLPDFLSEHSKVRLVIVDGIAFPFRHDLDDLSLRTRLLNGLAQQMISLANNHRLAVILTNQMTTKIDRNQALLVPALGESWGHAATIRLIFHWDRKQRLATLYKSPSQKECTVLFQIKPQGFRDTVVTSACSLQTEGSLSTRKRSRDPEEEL

Legend:
Experiment in all cases: log2 fold change, soluble protein after heating vs DMSO (PISA); higher = thermal stabilisation; K562 cells, 10 uM, 30 min; active = over 0.2 and 3.5 SD of the protein, either way, in both replicates (recomputed)
[1] = compound: CS(=O)(=O)c1ccc(-c2cnc(N)c(C(=O)Nc3ccccc3)n2)cc1
Outline: (§1)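 For each measurement, 10 μM compound was applied for 30 min to K562 cells at 2×10^6 cells/mL. Aliquots were heated for 3 min across 48°C-58°C, pooled, and extracted in PBS with 0.5% NP-40 at 4°C; the supernatant after 21,000xg for 90 min was soluble protein. This was quantified by TMTpro 16plex LC-MS/MS with channel sums equalised, and thermal stability was reported relative to control samples from duplicates, on a log2 fold-change scale.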

crizotinib = compound: C[C@@H](Oc1cc(-c2cnn(C3CCNCC3)c2)cnc1N)c1c(Cl)ccc(F)c1Cl [crizotinib]
Outline: as §1

[2] = compound: C[C@@H]1COCCN1C2=NC(=NC(=C2)C3(CC3)S(=O)(=O)C)C4=C5C=CNC5=CC=C4
Outline: as §1

[3] = compound: C[C@H](C1=CC=C(C=C1)C(=O)NC2=C3C=CNC3=NC=C2)N
Outline: as §1

duvelisib = compound: C[C@H](Nc1ncnc2nc[nH]c12)c1cc2cccc(Cl)c2c(=O)n1-c1ccccc1 [duvelisib]
Outline: as §1

gandotinib = compound: Cc1cc(Nc2cc(CN3CCOCC3)c3nc(C)c(Cc4ccc(Cl)cc4F)n3n2)n[nH]1 [gandotinib]
Outline: as §1

tozasertib = compound: Cc1cc(Nc2cc(N3CCN(C)CC3)nc(Sc3ccc(NC(=O)C4CC4)cc3)n2)n[nH]1 [tozasertib]
Outline: as §1

[4] = compound: Cc1cc(SCc2sc(-c3ccc(C(F)(F)F)cc3)nc2C)ccc1OCC(=O)O
Outline: as §1

doramapimod = compound: Cc1ccc(-n2nc(C(C)(C)C)cc2NC(=O)Nc2ccc(OCCN3CCOCC3)c3ccccc23)cc1 [doramapimod]
Outline: as §1

ispinesib = compound: Cc1ccc(C(=O)N(CCCN)[C@@H](c2nc3cc(Cl)ccc3c(=O)n2Cc2ccccc2)C(C)C)cc1 [ispinesib]
Outline: as §1

bafetinib = compound: Cc1ccc(NC(=O)c2ccc(CN3CC[C@H](N(C)C)C3)c(C(F)(F)F)c2)cc1Nc1nccc(-c2cncnc2)n1 [bafetinib]
Outline: as §1

[5] = compound: Cc1cccc(CC(=O)N2CCc3c2ccc(-c2cn(C)c4ncnc(N)c24)c3F)n1
Outline: as §1

nilotinib = compound: Cc1cn(-c2cc(NC(=O)c3ccc(C)c(Nc4nccc(-c5cccnc5)n4)c3)cc(C(F)(F)F)c2)cn1 [nilotinib]
Outline: as §1

[6] = compound: Cc1nc(Nc2n[nH]c3c2CN(C(=O)N[C@H](CN(C)C)c2ccccc2)C3(C)C)c2sccc2n1
Outline: as §1

dasatinib = compound: Cc1nc(Nc2ncc(C(=O)Nc3c(C)cccc3Cl)s2)cc(N2CCN(CCO)CC2)n1 [dasatinib]
Outline: as §1

[7] = compound: Cc1ncc(-c2ccnc(Nc3ccc(S(C)(=O)=O)cc3)n2)n1C(C)C
Outline: as §1

[8] = compound: Cn1cc(-c2ccc3c(c2)CCN3C(=O)Cc2cccc(C(F)(F)F)c2)c2c(N)ncnc21
Outline: as §1

[9] = compound: Cn1cc(-c2ccc3nnc(C(F)(F)c4ccc5ncccc5c4)n3n2)cn1
Outline: as §1

tipifarnib = compound: Cn1cncc1[C@@](N)(c1ccc(Cl)cc1)c1ccc2c(c1)c(-c1cccc(Cl)c1)cc(=O)n2C [tipifarnib]
Outline: as §1

mubritinib = compound: FC(F)(F)c1ccc(/C=C/c2nc(COc3ccc(CCCCn4ccnn4)cc3)co2)cc1 [mubritinib]
Outline: as §1

Measured: log2 fold change

RAB14 (UniProt P61106)
inactive: [1] 0.018 | crizotinib 0.034 | [2] 0.055 | [3] -0.023 | duvelisib 0.02 | gandotinib -0.01 | tozasertib -0.009 | [4] -0.014 | doramapimod -0.007 | ispinesib 0.098 | bafetinib -0.026 | [5] -0.042 | nilotinib 0.003 | [6] 0.024 | dasatinib 0.019 | [7] -0.005 | [8] 0.025 | [9] -0.009 | tipifarnib -0.049 | mubritinib 0.022

RALB isoform 2 (UniProt P11234)
inactive: [1] 0.037 | crizotinib 0.102 | [2] 0.092 | [3] -0.105 | duvelisib 0.03 | gandotinib -0.101 | tozasertib 0.001 | [4] -0.018 | doramapimod -0.029 | ispinesib 0.083 | bafetinib -0.005 | [5] -0.122 | nilotinib 0.043 | [6] -0.003 | dasatinib 0.013 | [7] 0.019 | [8] 0.019 | [9] -0.029 | tipifarnib -0.001 | mubritinib 0.006

RAB12, A0A3B3ITT1
inactive: [1] 0.014 | crizotinib 0.01 | [2] 0.025 | [3] -0.146 | duvelisib 0.01 | gandotinib -0.037 | tozasertib 0.002 | [4] -0.016 | doramapimod -0.012 | ispinesib 0.075 | bafetinib -0.077 | [5] -0.102 | nilotinib -0.023 | [6] -0.006 | dasatinib 0.013 | [7] 0.029 | [8] 0.01 | [9] -0.02 | tipifarnib 0.044 | mubritinib 0.027

RANBP3 (UniProt Q9H6Z4)
inactive: [1] 0.012 | crizotinib 0 | [2] 0.016 | [3] -0.031 | duvelisib 0.022 | gandotinib -0.031 | tozasertib 0.022 | [4] -0.013 | doramapimod 0.005 | ispinesib 0.072 | bafetinib -0.052 | [5] 0.046 | nilotinib 0.006 | [6] -0.012 | dasatinib 0.002 | [7] 0.008 | [8] -0.007 | [9] -0.013 | tipifarnib -0.024 | mubritinib 0.019

RAB3C (UniProt Q96E17)
inactive: [1] -0.007 | crizotinib 0.067 | [2] 0.059 | [3] -0.105 | duvelisib 0.052 | gandotinib -0.004 | tozasertib -0.059 | [4] -0.068 | doramapimod -0.108 | ispinesib 0.046 | bafetinib -0.093 | [5] -0.009 | nilotinib 0.033 | [6] -0.013 | dasatinib 0.004 | [7] -0.006 | [8] 0.016 | [9] 0.026 | tipifarnib 0.028 | mubritinib 0.039

RBFOX2 isoform 8 (UniProt O43251)
inactive: [1] -0.202 | crizotinib 0.158 | [2] -0.067 | [3] 0.076 | duvelisib 0 | gandotinib -0.116 | tozasertib -0.019 | [4] -0.049 | doramapimod 0.032 | ispinesib -0.123 | bafetinib -0.028 | [5] 0.143 | nilotinib -0.017 | [6] -0.127 | dasatinib -0.096 | [7] 0.243 | [8] -0.086 | [9] 0.124 | tipifarnib -0.122 | mubritinib 0.05

RBBP7 isoform 2 (UniProt Q16576)
inactive: [1] 0.032 | crizotinib 0.033 | [2] 0.008 | [3] -0.013 | duvelisib 0.016 | gandotinib 0.008 | tozasertib 0.03 | [4] -0.018 | doramapimod -0.019 | ispinesib 0.09 | bafetinib -0.018 | [5] -0.007 | nilotinib 0.004 | [6] 0.003 | dasatinib 0.013 | [7] 0.01 | [8] 0.004 | [9] 0.032 | tipifarnib -0.005 | mubritinib 0.009

RAB24 (UniProt Q969Q5)
inactive: [1] -0.01 | crizotinib 0.041 | [2] -0.02 | [3] -0.015 | duvelisib 0.001 | gandotinib 0.032 | tozasertib -0.005 | [4] -0.026 | doramapimod -0.021 | ispinesib 0.007 | bafetinib -0.047 | [5] -0.101 | nilotinib 0.008 | [6] 0.026 | dasatinib 0.037 | [7] -0.015 | [8] 0.009 | [9] -0.008 | tipifarnib 0.001 | mubritinib 0.003

RAB1B (UniProt Q9H0U4)
inactive: [1] 0.064 | crizotinib 0.008 | [2] 0.028 | [3] -0.022 | duvelisib 0.022 | gandotinib 0.022 | tozasertib -0.036 | [4] -0.061 | doramapimod 0.024 | ispinesib 0.069 | bafetinib 0.011 | [5] -0.058 | nilotinib 0.003 | [6] 0.013 | dasatinib 0.025 | [7] -0.002 | [8] -0.017 | [9] 0.01 | tipifarnib 0.053 | mubritinib -0.01

RBBP5 (UniProt Q15291)
inactive: [1] -0.049 | crizotinib 0.054 | [2] -0.043 | [3] 0.036 | duvelisib -0.021 | gandotinib -0.001 | tozasertib 0.01 | [4] -0.021 | doramapimod -0.031 | ispinesib 0 | bafetinib -0.024 | [5] -0.019 | nilotinib -0.022 | [6] -0.002 | dasatinib 0.017 | [7] 0.011 | [8] -0.03 | [9] -0.013 | tipifarnib 0.024 | mubritinib -0.034

RABEPK (UniProt Q7Z6M1)
inactive: [1] 0.033 | crizotinib 0.039 | [2] 0.061 | [3] -0.008 | duvelisib 0.003 | gandotinib 0.038 | tozasertib -0.04 | [4] -0.024 | doramapimod -0.006 | ispinesib 0.02 | bafetinib -0.01 | [5] -0.017 | nilotinib -0.006 | [6] 0.006 | dasatinib 0.057 | [7] -0.01 | [8] 0.053 | [9] -0.034 | tipifarnib 0.005 | mubritinib 0

RABL3 (UniProt Q5HYI8)
inactive: [1] 0.035 | crizotinib 0.081 | [2] 0.115 | [3] -0.082 | duvelisib 0.024 | gandotinib -0.027 | tozasertib -0.013 | [4] 0.01 | doramapimod -0.04 | ispinesib -0.1 | bafetinib -0.078 | [5] 0.003 | nilotinib -0.02 | [6] -0.007 | dasatinib -0.009 | [7] 0.004 | [8] 0.034 | [9] -0.007 | tipifarnib -0.016 | mubritinib 0.016

RAB2A (UniProt P61019)
inactive: [1] 0.006 | crizotinib 0.051 | [2] 0.07 | [3] -0.026 | duvelisib 0.043 | gandotinib -0.031 | tozasertib -0.046 | [4] -0.021 | doramapimod 0.001 | ispinesib 0.009 | bafetinib 0.007 | [5] -0.015 | nilotinib -0.011 | [6] 0.017 | dasatinib 0.026 | [7] -0.021 | [8] -0.005 | [9] 0.037 | tipifarnib 0.044 | mubritinib 0.02

RANBP9 (UniProt Q96S59)
inactive: [1] 0.035 | crizotinib 0.057 | [2] -0.024 | [3] -0.01 | duvelisib -0.035 | gandotinib 0.032 | tozasertib 0.056 | [4] 0.005 | doramapimod -0.013 | ispinesib 0.012 | bafetinib -0.011 | [5] -0.003 | nilotinib 0.002 | [6] -0.003 | dasatinib -0.016 | [7] 0.013 | [8] -0.061 | [9] -0.061 | tipifarnib 0.03 | mubritinib 0.014

RAB6B (UniProt Q9NRW1)
inactive: [1] -0.056 | crizotinib 0.026 | [2] 0.211 | [3] -0.096 | duvelisib 0.039 | gandotinib -0.008 | tozasertib 0.001 | [4] -0.024 | doramapimod 0.006 | ispinesib 0.019 | bafetinib -0.055 | [5] -0.083 | nilotinib -0.031 | [6] 0.016 | dasatinib 0.022 | [7] 0 | [8] 0.039 | [9] -0.051 | tipifarnib 0.035 | mubritinib -0.008

Retrieved one by one from the entries so far (two):
RAB24 (UniProt Q969Q5)
inactive: [1] -0.01 | crizotinib 0.041 | [2] -0.02 | [3] -0.015 | duvelisib 0.001 | gandotinib 0.032 | tozasertib -0.005 | [4] -0.026 | doramapimod -0.021 | ispinesib 0.007 | bafetinib -0.047 | [5] -0.101 | nilotinib 0.008 | [6] 0.026 | dasatinib 0.037 | [7] -0.015 | [8] 0.009 | [9] -0.008 | tipifarnib 0.001 | mubritinib 0.003

RBBP5 (UniProt Q15291)
inactive: [1] -0.049 | crizotinib 0.054 | [2] -0.043 | [3] 0.036 | duvelisib -0.021 | gandotinib -0.001 | tozasertib 0.01 | [4] -0.021 | doramapimod -0.031 | ispinesib 0 | bafetinib -0.024 | [5] -0.019 | nilotinib -0.022 | [6] -0.002 | dasatinib 0.017 | [7] 0.011 | [8] -0.03 | [9] -0.013 | tipifarnib 0.024 | mubritinib -0.034

(cont.)

RAD51C (UniProt O43502)
inactive: [1] 0.063 | crizotinib -0.107 | [2] -0.003 | [3] -0.007 | duvelisib 0.062 | gandotinib 0.12 | tozasertib -0.022 | [4] 0.065 | doramapimod -0.052 | ispinesib -0.02 | bafetinib -0.118 | [5] 0.02 | nilotinib -0.007 | [6] -0.039 | dasatinib -0.107 | [7] 0.003 | [8] 0.005 | [9] 0.009 | tipifarnib 0.068 | mubritinib 0.091
